Measurements published in article doi:10.1101/438911.
No constants are given. Whether binding was seen depends on the method and setting. In cells and extracts the contact can be indirect. A yes stands for co-enrichment or nearness to the bait. Other partners may have been found.

Biological target: Piwi4-FLAG (C-terminal FLAG tagged Piwi4) (Aedes aegypti)
Test: affinity purification with mass spectrometry

B1: Argonaute-2 (Ago2) (protein, UniProt C5J0H4 1-992)
chain: MILNARYLYIPCRQKQQQQQQQPQQQQQHQQKQQSQQQQQQQQQQQRSKEQGSQQQQRPQQQAQQQQPSQQQQQSQKQQHPQQQQQQRPQKQQQQFQQDQRPQQQQQQLQKQQQQQGQSWRPQSHDPSPASGSHSHSSSPSHAAALERVEEDFSKIKIDKQKIHSSALLPVLMRPNAHGTRGRAIKVEVNYIQLLLERLIPTAYHYDVDIQPAASRKWQRLAFSEFTKQMFPNHGFAFDGHKNAYAARRLQADVYEQEVKVRDEGRERRFKVAMKEAAVLDMTCLKTYMNNGSTLDKPMSAIQCLDIVLRTAYENNPRFIKFKKSIYVKPDRPDDIGSNHELWYGLFQSALLGARPFLNIDVSHKAFPTGGPVLRILVDMNRGQVPDRVTDWMSRDLHDFLKGMELSYTGPDGVSKLFKYNSIKSPANQQKFKLENGTEMTIDQYFRSKNKQLRYPSLPVLHVGSLVRNVMLPIELCSIPPGQALNKKHPDQCTQFIIRKSATDTATRKRKIMDLFNQIGYNNAPTIKEFGVSVGNNFETVDGRILDPPELSYRNDRRVKPMRGVWRADNMNFIIPSTEITRRELSWTILNLDGRTRPDAIDEFGRNIYQMSLKQGVQLQQFSMKNNFYEPRDMRFAVKDLDNIFDELKKRKIDLVFVVIPSPGRDGDVYAKVKQKAELCVGLLTQCIKSFTLDKKRGDMSTISNIWLKINAKTNGSNHVLAKNFKPPIARKTVMYVGADVTHPSPEQTNIPSVVGVAASYDLEGFRYNCCYRLQGPKDEMIRDLQNIVIKQLRQFKQTNQSLPELIMYYRDGVSEGQFQEVLTIELRAMQAAAASVQQGYKPNITFIVVQKRHHARFFPTANCPTEGRNNNVQPGTIVDRYITAPNQYQFFLVSHAAVQGVAKPTKYCVLYDDENCNPDQLQALTYYLCHMFTRCNRAVSYPAPTYYAHLAAYRGRVYIKDRPLNMNNLTKEYERMQIRTEIQDGHPMFFV
Q: B1 was tested. Which binding did it give?
A: binds
